The nature of the data set: general procedure: Fmoc solid-phase peptide synthesis; 2-chlorotrityl resin; HBTU/DIEA. As to conditions: whole synthesis, scale of the general procedure 0.25 mmol.

Consider “H-Pro-Pro-Asp(OtBu)-Lys-NH2 silane hybrid”, for which the “purity (crude or final not stated)” value is listed as “greater than 95%”.

(Values after US20160096865 (published 2016).)
